Results from patent US20250143305A1, “PYRAZOLE COMPOUND AND PEST CONTROL AGENT CONTAINING THE SAME AS ACTIVE INGREDIENT” (MITSUI CHEMICALS CROP & LIFE SOLUTIONS, INC., priority 2022, published 2025).
Some results were stated once for a whole list of compounds, not compound by compound.

Legend:
Assay type in all cases: in vivo
Nilaparvata lugens [1] = experiment: Insecticidal test against Nilaparvata lugens, spray on rice seedling; conditions: 100 ppm; acetone solution sprayed on rice seedling; 10 young larvae; 25° C.; after 6 days
Sogatella furcifera = experiment: Insecticidal test against Sogatella furcifera, spray on rice seedling; conditions: 100 ppm; acetone solution sprayed on rice seedling; 10 young larvae; 25° C.; after 6 days
Nilaparvata lugens [2] = experiment: Insecticidal test against Nilaparvata lugens, root part of rice seedling immersed; conditions: 100 ppm, 2% acetone aqueous solution, 10 young larvae, 25° C., after 6 days
Procedure: Insecticidal Test Against Nilaparvata lugens
12.5 ml of a 2% acetone aqueous solution in which the test compound was adjusted to a predetermined concentration was placed in a container, and a root part of a rice (Oryza sativa) seedling fixed with a sponge and a plastic cylinder was immersed. 10 young larvae were released into the container, and the container was covered with a plastic lid. The container was allowed to stand in a thermostatic chamber at 25° C., and the numbers of living insects and dead insects were examined after 6 days.

Myzus persicae = experiment: Insecticidal test against Myzus persicae, spray on radish leaves; conditions: 100 ppm; 20% acetone aqueous solution sprayed on radish leaves; 25 young larvae; 25° C.; after 5 days
Procedure: Insecticidal Test Against Myzus persicae
2.5 ml of a 20% acetone aqueous solution prepared to have a predetermined concentration of the test compound was sprayed on the leaves of radish (Raphanus sativus) in which the roots retained water and 25 young larvae were parasitized. After air drying, it was allowed to stand in a thermostatic chamber at 25° C., and the number of living insects and the number of dead insects were examined after 5 days.

SMILES	mortality rate (Nilaparvata lugens [1])	mortality rate (Sogatella furcifera)	mortality rate (Nilaparvata lugens [2])	mortality rate (Myzus persicae)
CCS(=O)(=O)c1c(-c2nc3cc(C(F)(F)F)ncn3n2)nn(C)c1N(C)C(C)=O [compound 12]	≥ 50%	≥ 50%	≥ 50%	–
CCS(=O)(=O)c1c(-c2nc3cc(C(F)(F)F)ncn3n2)nn(C)c1NC(=O)OC [compound 14]	≥ 50%	–	≥ 50%	≥ 50%
CCS(=O)(=O)c1c(-c2cn3cnc(C(F)(F)F)cc3n2)nn(C)c1NC(=O)C(F)(F)C(F)(F)C(F)(F)F [compound 18]	–	≥ 50%	≥ 50%	–
CCSc1c(-c2nc3cc(C(F)(F)F)ncn3n2)nn(C)c1NC(=O)C(F)(F)C(F)(F)C(F)(F)F [compound 20]	–	≥ 50%	≥ 50%	–
CCSc1c(-c2cn3cnc(C(F)(F)F)cc3n2)nn(C)c1N(C)C(=O)C(F)(F)C(F)(F)F [compound 33]	≥ 50%	≥ 50%	≥ 50%	–
CCSc1c(-c2cn3cnc(C(F)(F)F)cc3n2)nn(C)c1N(C)C(=O)C(F)F [compound 37]	≥ 50%	≥ 50%	≥ 50%	–
CCSc1c(-c2cn3cnc(C(F)(F)F)cc3n2)nn(C)c1NC(=O)CC [compound 41]	≥ 50%	≥ 50%	≥ 50%	–
CCCC(=O)Nc1c(SCC)c(-c2cn3cnc(C(F)(F)F)cc3n2)nn1C [compound 47]	≥ 50%	≥ 50%	≥ 50%	–
CCCCC(=O)Nc1c(SCC)c(-c2cn3cnc(C(F)(F)F)cc3n2)nn1C [compound 50]	≥ 50%	≥ 50%	≥ 50%	–
CCS(=O)(=O)c1c(-c2cn3cnc(C(F)(F)F)cc3n2)nn(C)c1NC(=O)C(C)C [compound 51]	≥ 50%	–	≥ 50%	–
CCSc1c(-c2cn3cnc(C(F)(F)F)cc3n2)nn(CC)c1NC(C)=O [compound 76]	≥ 50%	≥ 50%	≥ 50%	–
CCSc1c(-c2cn3cnc(C(F)(F)F)cc3n2)nn(CC)c1NC(=O)CC [compound 78]	≥ 50%	≥ 50%	≥ 50%	–
CCCC(=O)Nc1c(SCC)c(-c2cn3cnc(C(F)(F)F)cc3n2)nn1CC [compound 79]	≥ 50%	≥ 50%	≥ 50%	–
CCC(=O)Nc1c(S(=O)(=O)CC)c(-c2cn3cnc(C(F)(F)F)cc3n2)nn1CC [compound 80]	≥ 50%	≥ 50%	≥ 50%	–
CCCC(=O)Nc1c(S(=O)(=O)CC)c(-c2cn3cnc(C(F)(F)F)cc3n2)nn1CC [compound 81]	≥ 50%	≥ 50%	≥ 50%	–
CCn1nc(-c2cn3cnc(C(F)(F)F)cc3n2)c(S(=O)(=O)CC)c1N [compound 82]	≥ 50%	≥ 50%	≥ 50%	–
CCSc1c(-c2cn3cnc(C(F)(F)F)cc3n2)nn(CC)c1NC [compound 89]	≥ 50%	≥ 50%	≥ 50%	–
CCCn1nc(-c2cn3cnc(C(F)(F)F)cc3n2)c(SCC)c1NC(=O)C(F)(F)F [compound 94]	≥ 50%	≥ 50%	≥ 50%	–
CCCn1nc(-c2cn3cnc(C(F)(F)F)cc3n2)c(SCC)c1NC(C)=O [compound 101]	≥ 50%	≥ 50%	≥ 50%	–
CCCn1nc(-c2cn3cnc(C(F)(F)F)cc3n2)c(SCC)c1NC(=O)CC [compound 103]	≥ 50%	≥ 50%	≥ 50%	–
CCSc1c(-c2cn3cnc(C(F)(F)F)cc3n2)nn(C)c1N(C(C)=O)C(C)=O [compound 108]	≥ 50%	≥ 50%	≥ 50%	–
CCSc1c(-c2cn3cnc(C(F)(F)F)cc3n2)nn(C)c1NC(=O)OCC(F)(F)F [compound 134]	≥ 50%	≥ 50%	≥ 50%	–
CCSc1c(-c2cn3cnc(C(F)(F)F)cc3n2)nn(C)c1NC(=O)CC(F)F [compound 135]	≥ 50%	≥ 50%	≥ 50%	–
CCSc1c(-c2cn3cnc(C(F)(F)F)cc3n2)nn(C)c1NC(=O)C1(F)CC1 [compound 145]	≥ 50%	≥ 50%	≥ 50%	–

SMILES	mortality rate (Nilaparvata lugens [1])	mortality rate (Sogatella furcifera)	mortality rate (Nilaparvata lugens [2])	mortality rate (Myzus persicae)
CCSc1c(-c2cn3cnc(C(F)(F)F)cc3n2)nn(C)c1NC(=O)C(F)(Cl)Cl [compound 147]	≥ 50%	≥ 50%	≥ 50%	–
CCSc1c(-c2cn3cnc(C(F)(F)F)cc3n2)nn(CC(F)(F)F)c1NC(C)=O [compound 159]	–	–	≥ 50%	–
CCCC(=O)Nc1c(S(=O)(=O)CC)c(-c2cn3cnc(C(F)(F)F)cc3n2)nn1CC(F)(F)F [compound 164]	–	–	≥ 50%	–
CCS(=O)(=O)c1c(-c2cn3cnc(C(F)(F)F)cc3n2)nn(C)c1NC(=O)C1CCC1 [compound 218]	–	–	≥ 50%	≥ 50%
CCSc1c(-c2cn3cnc(C(F)(F)C(F)(F)F)cc3n2)nn(C)c1NC(=O)OC(C)(C)C [compound 279]	≥ 50%	–	≥ 50%	–
CCSc1c(-c2cn3cnc(C(F)(F)C(F)(F)F)cc3n2)nn(CC)c1NC(=O)OC(C)(C)C [compound 287]	≥ 50%	–	≥ 50%	–
CCS(=O)(=O)c1c(-c2cn3cnc(C(F)(F)F)cc3n2)nn(C2CC2)c1NC(=O)C(F)(F)F [compound 344]	≥ 50%	≥ 50%	–	≥ 50%
CCSc1c(-c2cn3cnc(C(F)(F)F)cc3n2)nn(C)c1NC(C)=O [compound 367]	≥ 50%	≥ 50%	≥ 50%	–
CCSc1c(-c2cn3cnc(C(F)(F)F)cc3n2)nn(C2CC2)c1NC(=O)C(F)(F)C(F)(F)F [compound 368]	≥ 50%	≥ 50%	–	≥ 50%
CCS(=O)(=O)c1c(-c2cn3cnc(C(F)(F)F)cc3n2)nn(C2CC2)c1NC(=O)C(F)(F)C(F)(F)C(F)(F)F [compound 371]	≥ 50%	≥ 50%	–	≥ 50%
CCS(=O)(=O)c1c(-c2cn3cnc(C(F)(F)F)cc3n2)nn(C)c1NC(=O)c1cccnn1 [compound 375]	≥ 50%	≥ 50%	–	≥ 50%
CCSc1c(-c2cn3cnc(C(F)(F)F)cc3n2)nn(C2CC2)c1NC(=O)C(F)(F)C(F)F [compound 382]	≥ 50%	≥ 50%	–	≥ 50%
CCSc1c(-c2cn3cnc(C(F)(F)F)cc3n2)nn(C)c1NC(=O)c1cnccn1 [compound 388]	≥ 50%	≥ 50%	≥ 50%	–
CCSc1c(-c2cn3cnc(C(F)(F)Cl)cc3n2)nn(C)c1N [compound 392]	≥ 50%	≥ 50%	≥ 50%	–
CCS(=O)(=O)c1c(-c2cn3cnc(C(F)(F)F)cc3n2)nn(C)c1NC(=O)c1ncccn1 [compound 395]	≥ 50%	≥ 50%	–	≥ 50%
CCS(=O)(=O)c1c(-c2cn3cnc(C(C)(C)F)cc3n2)nn(C)c1NC(=O)C(F)(F)F [compound 397]	≥ 50%	≥ 50%	–	≥ 50%
CCS(=O)(=O)c1c(-c2cn3cnc(C(F)(F)F)cc3n2)nn(C)c1NC(=O)CCC(F)(F)F [compound 402]	≥ 50%	–	≥ 50%	–
CCSc1c(-c2cn3cnc(C(F)(F)F)cc3n2)nn(CC)c1NC(=O)C(F)(F)C(F)(F)Cl [compound 404]	≥ 50%	≥ 50%	–	≥ 50%
CCSc1c(-c2cn3cnc(C(F)(F)C(F)(F)F)cc3n2)nn(C)c1NC(=O)C(F)(Cl)Cl [compound 408]	≥ 50%	≥ 50%	–	≥ 50%
CCSc1c(-c2cn3cnc(C(F)(F)C(F)(F)F)cc3n2)nn(C)c1NC(=O)C(F)(F)Cl [compound 409]	≥ 50%	≥ 50%	–	≥ 50%
CCSc1c(-c2cn3cnc(C(F)(F)F)cc3n2)nn(CC)c1NC(=O)C(Cl)Cl [compound 423]	≥ 50%	≥ 50%	≥ 50%	–
CCSc1c(-c2cn3cnc(C(F)(F)F)cc3n2)nn(CC)c1NC(=O)C(F)(F)C(F)(F)C(F)(F)C(F)(F)F [compound 425]	≥ 50%	≥ 50%	≥ 50%	–
CCSc1c(-c2cn3cnc(C(F)(F)F)cc3n2)nn(C)c1NC(=O)CC1CC1 [compound 428]	≥ 50%	≥ 50%	≥ 50%	–
